Test results: PMC7115952
Results are given in words; binding and its absence hold for the method and conditions named. Binding seen in cells or lysates may run through a third protein. Some results given as binding are weak or reduced against the parent protein; the word gives no strength.

Protein sequences, listed by entry. Tags and fused reporters are not part of them. Lines headed by an entry give the natural chain unless they say otherwise; changes in a name come on top. Chains listed by the source or under a name are the forms on record and can include a tag or linker. Residues count along the entry.
GST–HsINCENP C-terminus (aa 820–918), wild type (Q9NQS7, residues 820-918): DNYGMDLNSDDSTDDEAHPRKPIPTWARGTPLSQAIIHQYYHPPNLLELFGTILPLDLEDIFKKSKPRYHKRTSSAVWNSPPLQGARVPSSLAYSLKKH
GST–HsINCENP C-terminus (aa 820–918) ST831AA (Q9NQS7, form named): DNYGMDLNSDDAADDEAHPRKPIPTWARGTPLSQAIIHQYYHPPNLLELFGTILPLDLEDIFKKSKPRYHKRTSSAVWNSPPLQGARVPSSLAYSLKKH
GST–HsINCENP C-terminus (aa 820–918) ST831EE (Q9NQS7, form named): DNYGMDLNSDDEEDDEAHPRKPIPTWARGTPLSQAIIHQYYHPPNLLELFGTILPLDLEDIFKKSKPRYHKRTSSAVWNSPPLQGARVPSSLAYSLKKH
UniProt Q96GD4: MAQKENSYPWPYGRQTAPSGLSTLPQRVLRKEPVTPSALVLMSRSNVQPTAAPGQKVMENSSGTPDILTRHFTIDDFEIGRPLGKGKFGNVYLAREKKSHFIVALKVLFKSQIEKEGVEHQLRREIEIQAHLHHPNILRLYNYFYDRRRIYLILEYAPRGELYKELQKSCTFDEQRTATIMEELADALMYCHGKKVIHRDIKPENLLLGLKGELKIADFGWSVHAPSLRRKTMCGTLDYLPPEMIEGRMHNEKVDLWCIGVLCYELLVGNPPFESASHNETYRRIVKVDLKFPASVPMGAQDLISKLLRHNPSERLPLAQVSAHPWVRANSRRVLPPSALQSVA

Columns and labels:
Assay in all cases: pull-down; GST–HsINCENP C-terminus (aa 820–918) bound to glutathione–Sepharose beads, incubated with lysates of Sf9 cells producing His–HsAurora B, 2 h at 4°C then 30 min at room temperature; lysis buffer 50 mM Tris-HCl pH 8.0, NaCl, 1% NP-40, 0.5% sodium deoxycholate; immunoblot; only the target purified
[1] = biological target: GST–HsINCENP C-terminus (aa 820–918) ST831AA (human) (UniProt Q9NQS7)
[2] = biological target: GST–HsINCENP C-terminus (aa 820–918) ST831EE (human) (UniProt Q9NQS7)
[3] = biological target: GST–HsINCENP C-terminus (aa 820–918), wild type (human) (UniProt Q9NQS7)

binding [1]: binds | binding [2]: binds | binding [3]: binds
Substance: His–HsAurora B (from UniProt Q96GD4 1-344) (enzyme)
